From paper PMC7498459

Biological target: dihydrolipoamide acetyltransferase (pyruvate dehydrogenase complex—enzyme 2) (L. innocua (endogenous in L. innocua DSM 20649))
Assay: affinity purification with mass spectrometry; immunomagnetic separation (IMS): SureBeads Protein A magnetic beads coated with 10 µg GSM133-A4 scFv-Fc (anti-PDC-E2); cytoplasmic preparation of L. innocua DSM 20649 diluted 1:2 in PBS, 1 h; elution with glycine 20 mM pH 2.0; bands cut from SDS-PAGE, MALDI-TOF peptide mass fingerprinting

binding: binds
B1: PDC-E1α (enzyme, UniProt A0ACH1DC28 1-371)
chain: MASKTKKAIIDVKKQFEAVHKQFELVQILNEKGEIVNPDLMPDLTDDELVELMTRMVWTRVLDQRSISLNRQGRLGFYAPTAGQEASQLASHYALEKHDYILPGYRDVPQLIWHGLPLTKAFLFSRGHFVGNQFPEDLNVLSPQIIIGAQIVQAAGVALGLKKRKKDAVVITYTGDGGSSQGDFYEGMNFAGAYHAPAIFVVQNNKFAISTPREKQSAAETLAQKAVAAGIPGVQVDGMDPLAVYAVTKFARERAVAGEGPTLIETMTYRYGPHTLSGDDPTRYRTKELDGEWELKDPIVRFRTFLEGKGLWNEEKENAVIDQAKEEIKVAIKEADATPKQTVTDLLKNMYETPTAPIKEQLAIYEAKESK

No constants are given. Whether binding was seen depends on the method and setting. In cells and extracts the contact can be indirect. Here binding means that the protein was enriched with, or labelled near, the bait; the list need not be complete.
